Source: the supplement of paper PMC5836539
± gives the standard deviation of the averaged measurements. Single values are uncertain here, since repeats match poorly.

By UniProt entry, the sequences of proteins in these tests, tags left out. Where a name states a change or a piece, a line headed by the entry shows the natural chain unless it says otherwise.
UniProt O43719: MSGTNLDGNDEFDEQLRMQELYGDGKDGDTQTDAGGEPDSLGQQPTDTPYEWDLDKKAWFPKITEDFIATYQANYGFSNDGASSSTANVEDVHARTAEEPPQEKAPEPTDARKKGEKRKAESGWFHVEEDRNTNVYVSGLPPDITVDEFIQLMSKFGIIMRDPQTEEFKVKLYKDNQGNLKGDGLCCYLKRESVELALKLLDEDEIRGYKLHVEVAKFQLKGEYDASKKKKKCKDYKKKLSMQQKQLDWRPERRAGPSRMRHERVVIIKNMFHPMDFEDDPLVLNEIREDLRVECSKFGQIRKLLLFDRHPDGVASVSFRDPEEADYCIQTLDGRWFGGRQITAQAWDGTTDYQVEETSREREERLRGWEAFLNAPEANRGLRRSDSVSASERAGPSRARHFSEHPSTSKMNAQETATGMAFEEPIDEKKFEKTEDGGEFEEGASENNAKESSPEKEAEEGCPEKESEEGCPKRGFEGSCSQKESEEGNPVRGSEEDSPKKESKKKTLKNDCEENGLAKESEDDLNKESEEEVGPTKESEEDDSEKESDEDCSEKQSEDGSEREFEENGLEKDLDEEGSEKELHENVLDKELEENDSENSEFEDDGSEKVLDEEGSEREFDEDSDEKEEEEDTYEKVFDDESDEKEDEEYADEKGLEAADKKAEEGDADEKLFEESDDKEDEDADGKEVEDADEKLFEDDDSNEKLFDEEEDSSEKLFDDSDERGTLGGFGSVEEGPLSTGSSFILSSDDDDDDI
UniProt Q9Y2H2: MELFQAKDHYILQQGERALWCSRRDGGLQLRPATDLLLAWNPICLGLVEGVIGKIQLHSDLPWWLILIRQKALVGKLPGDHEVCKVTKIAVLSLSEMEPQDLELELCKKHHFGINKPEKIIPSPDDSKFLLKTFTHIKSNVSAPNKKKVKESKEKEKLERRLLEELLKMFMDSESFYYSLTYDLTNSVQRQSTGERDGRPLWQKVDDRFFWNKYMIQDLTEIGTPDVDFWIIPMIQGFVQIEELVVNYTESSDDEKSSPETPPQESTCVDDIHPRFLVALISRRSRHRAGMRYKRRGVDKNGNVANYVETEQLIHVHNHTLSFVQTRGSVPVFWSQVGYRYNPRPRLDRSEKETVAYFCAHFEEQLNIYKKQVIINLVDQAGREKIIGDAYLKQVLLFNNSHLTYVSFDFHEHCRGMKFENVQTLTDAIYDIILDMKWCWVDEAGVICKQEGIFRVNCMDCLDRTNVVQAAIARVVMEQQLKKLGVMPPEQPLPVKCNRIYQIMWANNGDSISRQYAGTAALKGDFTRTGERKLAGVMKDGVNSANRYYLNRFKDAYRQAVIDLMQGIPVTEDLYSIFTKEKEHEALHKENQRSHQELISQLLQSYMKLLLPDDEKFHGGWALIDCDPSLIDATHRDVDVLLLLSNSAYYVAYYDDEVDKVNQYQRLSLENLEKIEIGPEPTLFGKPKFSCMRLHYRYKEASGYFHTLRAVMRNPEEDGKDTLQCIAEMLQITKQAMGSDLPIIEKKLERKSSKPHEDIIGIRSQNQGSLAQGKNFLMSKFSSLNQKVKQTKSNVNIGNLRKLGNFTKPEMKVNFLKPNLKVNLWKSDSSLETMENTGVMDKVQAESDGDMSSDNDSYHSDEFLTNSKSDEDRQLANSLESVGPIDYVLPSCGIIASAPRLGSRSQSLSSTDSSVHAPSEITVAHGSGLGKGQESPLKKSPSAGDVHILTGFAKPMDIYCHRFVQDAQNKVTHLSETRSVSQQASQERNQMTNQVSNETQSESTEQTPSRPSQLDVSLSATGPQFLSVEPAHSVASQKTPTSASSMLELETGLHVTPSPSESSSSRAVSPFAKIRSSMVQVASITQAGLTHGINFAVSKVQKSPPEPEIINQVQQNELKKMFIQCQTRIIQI
UniProt Q9Y4H2: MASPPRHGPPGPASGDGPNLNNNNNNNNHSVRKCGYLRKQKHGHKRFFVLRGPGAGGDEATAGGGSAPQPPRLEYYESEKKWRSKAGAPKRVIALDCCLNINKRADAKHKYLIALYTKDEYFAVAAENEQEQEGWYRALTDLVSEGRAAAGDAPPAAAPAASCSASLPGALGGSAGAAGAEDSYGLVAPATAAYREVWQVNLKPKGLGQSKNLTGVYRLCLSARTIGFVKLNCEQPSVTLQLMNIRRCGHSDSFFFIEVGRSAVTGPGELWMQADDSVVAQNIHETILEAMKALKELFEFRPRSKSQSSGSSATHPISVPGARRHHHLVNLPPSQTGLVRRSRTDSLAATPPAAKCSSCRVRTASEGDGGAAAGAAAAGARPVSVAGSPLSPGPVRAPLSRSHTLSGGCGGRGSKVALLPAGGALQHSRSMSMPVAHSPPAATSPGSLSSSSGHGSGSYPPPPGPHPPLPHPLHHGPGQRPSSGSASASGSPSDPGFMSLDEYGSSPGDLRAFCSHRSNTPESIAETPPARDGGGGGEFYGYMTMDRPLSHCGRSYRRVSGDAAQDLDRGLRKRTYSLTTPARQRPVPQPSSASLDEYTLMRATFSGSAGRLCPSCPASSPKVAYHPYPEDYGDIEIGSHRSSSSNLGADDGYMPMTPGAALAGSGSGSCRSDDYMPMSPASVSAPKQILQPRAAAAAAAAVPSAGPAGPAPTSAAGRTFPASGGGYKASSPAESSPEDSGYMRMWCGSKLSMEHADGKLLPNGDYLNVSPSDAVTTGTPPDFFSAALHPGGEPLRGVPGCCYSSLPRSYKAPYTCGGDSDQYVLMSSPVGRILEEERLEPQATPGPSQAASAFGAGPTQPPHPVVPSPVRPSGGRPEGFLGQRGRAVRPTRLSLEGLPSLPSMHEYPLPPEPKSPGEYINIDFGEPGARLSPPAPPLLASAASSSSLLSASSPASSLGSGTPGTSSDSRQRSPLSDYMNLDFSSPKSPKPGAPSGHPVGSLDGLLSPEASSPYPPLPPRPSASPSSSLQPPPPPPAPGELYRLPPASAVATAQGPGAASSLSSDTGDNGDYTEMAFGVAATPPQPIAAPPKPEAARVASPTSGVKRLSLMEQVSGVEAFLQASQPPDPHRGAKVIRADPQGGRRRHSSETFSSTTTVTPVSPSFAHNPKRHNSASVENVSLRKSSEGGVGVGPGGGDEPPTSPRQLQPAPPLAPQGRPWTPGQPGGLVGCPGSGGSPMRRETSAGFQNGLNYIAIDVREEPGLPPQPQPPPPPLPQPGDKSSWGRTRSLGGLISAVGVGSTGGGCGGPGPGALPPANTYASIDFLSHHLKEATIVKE
UniProt Q9HDC5: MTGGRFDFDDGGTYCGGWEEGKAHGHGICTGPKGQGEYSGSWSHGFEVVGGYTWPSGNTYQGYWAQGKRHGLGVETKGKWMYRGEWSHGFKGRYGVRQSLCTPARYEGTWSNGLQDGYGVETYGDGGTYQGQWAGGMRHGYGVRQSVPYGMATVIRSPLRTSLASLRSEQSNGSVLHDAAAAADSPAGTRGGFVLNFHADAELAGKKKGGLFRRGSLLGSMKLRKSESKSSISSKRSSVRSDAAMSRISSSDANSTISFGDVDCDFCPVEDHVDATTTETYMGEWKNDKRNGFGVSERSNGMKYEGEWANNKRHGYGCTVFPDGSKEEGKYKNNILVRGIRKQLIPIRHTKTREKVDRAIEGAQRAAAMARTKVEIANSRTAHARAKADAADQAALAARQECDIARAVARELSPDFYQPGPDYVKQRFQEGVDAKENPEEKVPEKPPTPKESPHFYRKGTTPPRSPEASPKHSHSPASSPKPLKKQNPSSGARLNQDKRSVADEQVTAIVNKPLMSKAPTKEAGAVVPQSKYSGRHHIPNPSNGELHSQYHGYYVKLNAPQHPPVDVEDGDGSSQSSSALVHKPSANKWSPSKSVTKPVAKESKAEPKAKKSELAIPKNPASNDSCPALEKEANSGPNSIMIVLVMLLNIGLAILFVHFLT
UniProt O75449: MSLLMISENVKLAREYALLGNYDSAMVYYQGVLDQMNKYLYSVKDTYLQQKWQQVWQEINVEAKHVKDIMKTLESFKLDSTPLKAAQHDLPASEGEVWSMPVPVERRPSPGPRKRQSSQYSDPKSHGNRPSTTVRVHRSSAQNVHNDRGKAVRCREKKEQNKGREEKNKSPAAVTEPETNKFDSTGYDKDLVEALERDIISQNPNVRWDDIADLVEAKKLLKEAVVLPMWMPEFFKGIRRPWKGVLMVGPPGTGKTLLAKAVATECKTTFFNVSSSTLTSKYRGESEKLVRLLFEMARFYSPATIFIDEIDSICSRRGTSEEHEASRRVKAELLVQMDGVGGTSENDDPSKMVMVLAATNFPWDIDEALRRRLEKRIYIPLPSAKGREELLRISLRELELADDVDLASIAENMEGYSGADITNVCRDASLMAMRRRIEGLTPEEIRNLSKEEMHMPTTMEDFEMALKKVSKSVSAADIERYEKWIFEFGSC
UniProt Q13303: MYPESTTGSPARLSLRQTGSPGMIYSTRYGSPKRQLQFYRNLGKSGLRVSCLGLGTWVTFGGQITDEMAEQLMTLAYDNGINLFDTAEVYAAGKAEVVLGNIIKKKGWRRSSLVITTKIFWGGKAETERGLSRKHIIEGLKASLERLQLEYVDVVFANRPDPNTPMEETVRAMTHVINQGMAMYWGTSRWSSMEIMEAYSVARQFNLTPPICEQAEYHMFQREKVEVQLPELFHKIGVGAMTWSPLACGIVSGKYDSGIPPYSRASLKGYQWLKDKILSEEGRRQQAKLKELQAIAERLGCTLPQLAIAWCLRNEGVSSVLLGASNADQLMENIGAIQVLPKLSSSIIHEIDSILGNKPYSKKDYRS
UniProt Q9UHB6: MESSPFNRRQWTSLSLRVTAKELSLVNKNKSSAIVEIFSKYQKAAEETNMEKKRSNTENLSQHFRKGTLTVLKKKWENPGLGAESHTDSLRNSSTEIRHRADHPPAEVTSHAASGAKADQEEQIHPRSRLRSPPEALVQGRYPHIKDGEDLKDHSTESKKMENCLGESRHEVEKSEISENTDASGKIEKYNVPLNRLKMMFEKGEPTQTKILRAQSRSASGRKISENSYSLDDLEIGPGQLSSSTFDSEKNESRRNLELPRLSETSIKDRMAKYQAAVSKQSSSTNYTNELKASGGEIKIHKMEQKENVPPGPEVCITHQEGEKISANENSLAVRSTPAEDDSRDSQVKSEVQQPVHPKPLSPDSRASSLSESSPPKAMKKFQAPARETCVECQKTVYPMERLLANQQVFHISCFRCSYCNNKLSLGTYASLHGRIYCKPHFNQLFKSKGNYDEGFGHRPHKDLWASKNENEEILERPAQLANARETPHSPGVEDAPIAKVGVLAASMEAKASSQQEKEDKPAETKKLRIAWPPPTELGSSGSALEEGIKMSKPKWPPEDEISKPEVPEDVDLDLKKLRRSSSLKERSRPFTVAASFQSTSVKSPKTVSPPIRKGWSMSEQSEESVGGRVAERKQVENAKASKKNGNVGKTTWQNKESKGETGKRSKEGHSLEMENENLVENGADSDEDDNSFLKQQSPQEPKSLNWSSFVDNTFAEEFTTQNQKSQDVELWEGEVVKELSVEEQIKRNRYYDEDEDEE
UniProt P43358: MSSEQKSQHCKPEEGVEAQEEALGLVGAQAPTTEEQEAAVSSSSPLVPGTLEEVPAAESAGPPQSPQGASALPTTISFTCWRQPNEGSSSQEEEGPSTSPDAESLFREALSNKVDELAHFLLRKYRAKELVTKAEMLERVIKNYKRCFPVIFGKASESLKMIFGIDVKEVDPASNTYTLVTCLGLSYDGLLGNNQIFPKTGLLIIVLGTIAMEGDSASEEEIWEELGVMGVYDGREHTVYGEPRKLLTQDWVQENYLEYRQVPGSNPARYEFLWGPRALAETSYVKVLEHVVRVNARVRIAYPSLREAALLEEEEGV
UniProt Q9UNF1: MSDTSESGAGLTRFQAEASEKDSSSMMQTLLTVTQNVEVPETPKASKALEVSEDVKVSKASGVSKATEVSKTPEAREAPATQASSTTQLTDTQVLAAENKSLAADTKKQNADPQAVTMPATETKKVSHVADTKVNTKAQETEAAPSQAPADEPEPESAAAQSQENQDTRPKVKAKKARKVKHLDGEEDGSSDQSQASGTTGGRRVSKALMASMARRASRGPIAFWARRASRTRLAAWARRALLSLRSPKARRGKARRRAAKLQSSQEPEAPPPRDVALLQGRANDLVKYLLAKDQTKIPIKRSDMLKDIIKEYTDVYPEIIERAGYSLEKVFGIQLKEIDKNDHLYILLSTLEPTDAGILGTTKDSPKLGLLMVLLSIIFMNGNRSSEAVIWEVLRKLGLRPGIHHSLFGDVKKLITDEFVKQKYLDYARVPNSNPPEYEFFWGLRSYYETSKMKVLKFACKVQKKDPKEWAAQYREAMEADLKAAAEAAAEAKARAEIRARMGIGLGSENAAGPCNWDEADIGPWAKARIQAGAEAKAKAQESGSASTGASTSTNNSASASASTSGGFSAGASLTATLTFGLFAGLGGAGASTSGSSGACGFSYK

Compound: CC[C@@H](C)Nc1cc(C(=O)N[C@H]2C[C@H]3CC[C@@H](C2)N3c2ccc(C(=O)C3CC3)cn2)c(C)cc1C(N)=O [XL888]
Assay: phosphopeptide melting temperature shift (XL888 minus DMSO); higher = stabilised by drug treatment
Details: 100 µM; treatment time 2 h; layout: intact cells; SK-Mel 28
Method: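 Phospho-TPP in intact SK-Mel 28 cells treated with 100 uM XL888 or DMSO for 2 h, heated at 10 temperatures (37-67 C) for 3 min, soluble fraction TMT10plex-labelled and TiO2 phospho-enriched. Melting curves were fitted per phosphopeptide; the value is the melting point difference (drug minus vehicle) in each of two biological replicates.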

Target: HDAC1 phosphosite_421 (phosphosite position: 421) (UniProt Q13547)
- phosphopeptide melting temperature shift: 1.52 ± 0.47 °C

Target: HDAC1 phosphosite_423 (phosphosite position: 423) (UniProt Q13547)
- phosphopeptide melting temperature shift: 1.52 ± 0.47 °C

Target: HDGF phosphosite_107 (phosphosite position: 107) (UniProt P51858)
- phosphopeptide melting temperature shift: 2.8 °C

Target: HDGF phosphosite_133 (phosphosite position: 133) (UniProt P51858)
- phosphopeptide melting temperature shift: 1.02 °C

Target: HERC2 phosphosite_2928 (phosphosite position: 2928) (UniProt O95714)
- phosphopeptide melting temperature shift: 1.55 ± 0.23 °C

Target: HEXIM2 phosphosite_53 (phosphosite position: 53) (UniProt Q96MH2)
- phosphopeptide melting temperature shift: -1.19 °C

Target: HIRIP3 phosphosite_223 (phosphosite position: 223) (UniProt Q9BW71)
- phosphopeptide melting temperature shift: 1.63 °C

Target: HIRIP3 phosphosite_530 (phosphosite position: 530) (UniProt Q9BW71)
- phosphopeptide melting temperature shift: 5.39 °C

Target: HNRNPA3 phosphosite_358 (phosphosite position: 358) (UniProt P51991)
- phosphopeptide melting temperature shift: 0.477 ± 0.011 °C

Target: HNRNPUL2 phosphosite_185 (phosphosite position: 185) (UniProt Q1KMD3)
- phosphopeptide melting temperature shift: 1.9 ± 0.86 °C

Target: HSP90AA1 phosphosite_252 (phosphosite position: 252) (UniProt P07900)
- phosphopeptide melting temperature shift: 7.5 °C

Target: HSP90AB1 phosphosite_261 (phosphosite position: 261) (UniProt P08238)
- phosphopeptide melting temperature shift: 4.21 °C

Target: HSPA4 phosphosite_538 (phosphosite position: 538) (UniProt P34932)
- phosphopeptide melting temperature shift: 0.851 ± 1.7 °C

Target: HTATSF1 phosphosite_616 (phosphosite position: 616) (UniProt O43719)
- phosphopeptide melting temperature shift: 0.766 ± 0.95 °C

Target: HTATSF1 phosphosite_624 (phosphosite position: 624) (UniProt O43719)
- phosphopeptide melting temperature shift: 0.766 ± 0.95 °C

Target: HTATSF1 phosphosite_713 (phosphosite position: 713) (UniProt O43719)
- phosphopeptide melting temperature shift: 1.54 ± 0.45 °C

Target: HTT phosphosite_419 (phosphosite position: 419) (UniProt P42858)
- phosphopeptide melting temperature shift: 1.09 °C

Target: HTT phosphosite_432 (phosphosite position: 432) (UniProt P42858)
- phosphopeptide melting temperature shift: 0.679 ± 0.14 °C

Target: IARS phosphosite_1047 (phosphosite position: 1047) (UniProt P41252)
- phosphopeptide melting temperature shift: 1.64 °C

Target: IGF2R phosphosite_2479 (phosphosite position: 2479) (UniProt P11717)
- phosphopeptide melting temperature shift: -4.66 °C

Target: ILF3 phosphosite_476 (phosphosite position: 476) (UniProt Q12906)
- phosphopeptide melting temperature shift: -0.279 ± 0.44 °C

Target: ILF3 phosphosite_477 (phosphosite position: 477) (UniProt Q12906)
- phosphopeptide melting temperature shift: -0.189 ± 0.88 °C

Target: INPP5F phosphosite_827 (phosphosite position: 827) (UniProt Q9Y2H2)
- phosphopeptide melting temperature shift: 1.09 °C

Target: INPP5F phosphosite_830 (phosphosite position: 830) (UniProt Q9Y2H2)
- phosphopeptide melting temperature shift: 2.96 °C

Target: INPP5F phosphosite_935 (phosphosite position: 935) (UniProt Q9Y2H2)
- phosphopeptide melting temperature shift: 1.4 °C

Target: IP6K1 phosphosite_127 (phosphosite position: 127) (UniProt Q92551)
- phosphopeptide melting temperature shift: -0.612 °C

Target: IRS2 phosphosite_560 (phosphosite position: 560) (UniProt Q9Y4H2)
- phosphopeptide melting temperature shift: -3.27 °C

Target: IRS2 phosphosite_577 (phosphosite position: 577) (UniProt Q9Y4H2)
- phosphopeptide melting temperature shift: 4.16 °C

Target: IRS2 phosphosite_1174 (phosphosite position: 1174) (UniProt Q9Y4H2)
- phosphopeptide melting temperature shift: 1.42 ± 2.6 °C

Target: IWS1 phosphosite_27 (phosphosite position: 27) (UniProt Q96ST2)
- phosphopeptide melting temperature shift: 2.39 °C

Target: IWS1 phosphosite_159 (phosphosite position: 159) (UniProt Q96ST2)
- phosphopeptide melting temperature shift: 1.76 ± 1.5 °C

Target: IWS1 phosphosite_248 (phosphosite position: 248) (UniProt Q96ST2)
- phosphopeptide melting temperature shift: 1.46 °C

Target: IWS1 phosphosite_250 (phosphosite position: 250) (UniProt Q96ST2)
- phosphopeptide melting temperature shift: 1.46 °C

Target: IWS1 phosphosite_362 (phosphosite position: 362) (UniProt Q96ST2)
- phosphopeptide melting temperature shift: 0.105 ± 1.1 °C

Target: IWS1 phosphosite_363 (phosphosite position: 363) (UniProt Q96ST2)
- phosphopeptide melting temperature shift: 0.401 ± 0.66 °C

Target: IWS1 phosphosite_365 (phosphosite position: 365) (UniProt Q96ST2)
- phosphopeptide melting temperature shift: 0.407 ± 0.65 °C

Target: IWS1 phosphosite_400 (phosphosite position: 400) (UniProt Q96ST2)
- phosphopeptide melting temperature shift: 2.77 ± 1.6 °C

Target: IWS1 phosphosite_720 (phosphosite position: 720) (UniProt Q96ST2)
- phosphopeptide melting temperature shift: 0.976 °C

Target: JPH1 phosphosite_475 (phosphosite position: 475) (UniProt Q9HDC5)
- phosphopeptide melting temperature shift: 0.463 ± 1.4 °C

Target: JPH1 phosphosite_478 (phosphosite position: 478) (UniProt Q9HDC5)
- phosphopeptide melting temperature shift: 0.963 °C

Target: JPH1 phosphosite_479 (phosphosite position: 479) (UniProt Q9HDC5)
- phosphopeptide melting temperature shift: 0.862 ± 1.9 °C

Target: KATNA1 phosphosite_170 (phosphosite position: 170) (UniProt O75449)
- phosphopeptide melting temperature shift: 0.919 °C

Target: KCNAB2 phosphosite_111 (phosphosite position: 111) (UniProt Q13303)
- phosphopeptide melting temperature shift: -2.09 °C

Target: KCTD12 phosphosite_185 (phosphosite position: 185) (UniProt Q96CX2)
- phosphopeptide melting temperature shift: 0.245 °C

Target: KIAA1522 phosphosite_669 (phosphosite position: 669) (UniProt Q9P206)
- phosphopeptide melting temperature shift: 1.46 ± 0.4 °C

Target: KIAA1522 phosphosite_673 (phosphosite position: 673) (UniProt Q9P206)
- phosphopeptide melting temperature shift: 1.46 ± 0.4 °C

Target: KLC2 phosphosite_151 (phosphosite position: 151) (UniProt Q9H0B6)
- phosphopeptide melting temperature shift: 1.41 °C

Target: KLC4 phosphosite_590 (phosphosite position: 590) (UniProt Q9NSK0)
- phosphopeptide melting temperature shift: 1.83 ± 1.5 °C

Target: KMT2D phosphosite_4738 (phosphosite position: 4738) (UniProt O14686)
- phosphopeptide melting temperature shift: 1.24 °C

Target: KRI1 phosphosite_628 (phosphosite position: 628) (UniProt Q8N9T8)
- phosphopeptide melting temperature shift: -0.122 ± 1.1 °C

Target: KRI1 phosphosite_639 (phosphosite position: 639) (UniProt Q8N9T8)
- phosphopeptide melting temperature shift: 0.598 ± 0.2 °C

Target: LARP1 phosphosite_225 (phosphosite position: 225) (UniProt Q6PKG0)
- phosphopeptide melting temperature shift: 0.203 °C

Target: LARP1 phosphosite_548 (phosphosite position: 548) (UniProt Q6PKG0)
- phosphopeptide melting temperature shift: 1.12 ± 0.47 °C

Target: LARP1 phosphosite_631 (phosphosite position: 631) (UniProt Q6PKG0)
- phosphopeptide melting temperature shift: 0.727 ± 0.022 °C

Target: LARP1 phosphosite_649 (phosphosite position: 649) (UniProt Q6PKG0)
- phosphopeptide melting temperature shift: 3.69 °C

Target: LARP1 phosphosite_824 (phosphosite position: 824) (UniProt Q6PKG0)
- phosphopeptide melting temperature shift: 0.186 °C

Target: LIMA1 phosphosite_132 (phosphosite position: 132) (UniProt Q9UHB6)
- phosphopeptide melting temperature shift: -0.932 ± 1.3 °C

Target: LIMA1 phosphosite_225 (phosphosite position: 225) (UniProt Q9UHB6)
- phosphopeptide melting temperature shift: 2.97 ± 0.65 °C

Target: LIMA1 phosphosite_698 (phosphosite position: 698) (UniProt Q9UHB6)
- phosphopeptide melting temperature shift: 1.68 °C

Target: LMNA phosphosite_390 (phosphosite position: 390) (UniProt P02545)
- phosphopeptide melting temperature shift: 0.072 °C

Target: LMNA phosphosite_392 (phosphosite position: 392) (UniProt P02545)
- phosphopeptide melting temperature shift: 0.993 ± 0.2 °C

Target: LRWD1 phosphosite_212 (phosphosite position: 212) (UniProt Q9UFC0)
- phosphopeptide melting temperature shift: 0.475 ± 0.79 °C

Target: LYST phosphosite_2124 (phosphosite position: 2124) (UniProt Q99698)
- phosphopeptide melting temperature shift: 0.868 ± 0.36 °C

Target: LYST phosphosite_2213 (phosphosite position: 2213) (UniProt Q99698)
- phosphopeptide melting temperature shift: 0.487 °C

Target: LYST phosphosite_2264 (phosphosite position: 2264) (UniProt Q99698)
- phosphopeptide melting temperature shift: -0.5 °C

Target: MAGEA4 phosphosite_99 (phosphosite position: 99) (UniProt P43358)
- phosphopeptide melting temperature shift: 1.67 °C

Target: MAGED2 phosphosite_190 (phosphosite position: 190) (UniProt Q9UNF1)
- phosphopeptide melting temperature shift: 0.437 ± 1.6 °C

Target: MAGED2 phosphosite_191 (phosphosite position: 191) (UniProt Q9UNF1)
- phosphopeptide melting temperature shift: 0.973 ± 0.13 °C

Target: MAGED2 phosphosite_194 (phosphosite position: 194) (UniProt Q9UNF1)
- phosphopeptide melting temperature shift: 0.878 ± 0.51 °C

Target: MAP1B phosphosite_948 (phosphosite position: 948) (UniProt P46821)
- phosphopeptide melting temperature shift: 1.89 ± 0.39 °C

Target: MAP1B phosphosite_970 (phosphosite position: 970) (UniProt P46821)
- phosphopeptide melting temperature shift: -1.4 °C
